Test results from patent US4605655A, “Antipsychotic 1-fluorophenylbutyl-4-(2-pyrimidinyl)piperazine derivatives” (Bristol-Myers Company, priority 1984, dated 1986).
pIC50: −log10 of the molar value.

Target: Dopamine receptor (striatal tissue)
Assay: Dopamine (DA) receptor binding vs. [^3 H]spiperone
Conditions: read-out: DA Binding (vs. [^3 H]spip.) IC50
Excerpt: As further indication of the psychotropic activity and specificity of the instant compounds, state of the art in vitro central nervous system receptor binding methodology can be employed. […] Inhibition of radiolabeled ligand binding to such specific high affinity sites is considered a measure of the compound's ability to affect corresponding central nervous system function or cause side effects in vivo. This principal is employed in the following assays which are given by way of example.
Dopamine Burt, et al., Molec. Pharmacol., 12, 800

With `CSc1ccc2c(c1)N(CCC1CCCCN1C)c1ccccc1S2` (stereo not shown) [Thioridazine, reference compound] the pIC50 was 7.17.
